Test results published in the supplement of paper PMC11546906.
The other results are listed elsewhere or left out. Repeats in this data set agree poorly, so a single value says little.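 Screen of FDA-approved drugs, each combined with colistin at one-eighth of its MIC, against a multidrug-resistant mcr-1-positive clinical E. coli isolate; growth read as OD600 after 24 h. Bacteria without drug were the growth control and plain broth the blank. A combination counted as active when OD600 fell below 0.2.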

system: Escherichia coli 42 (mcr-1-positive clinical isolate); test: OD600 after 24 h growth with compound plus colistin (absorbance units (OD600)); higher = more bacterial growth (less inhibition); settings: first compound 25 µM; colistin concentration 0.5 ug/mL; incubation time 24 h; 37 °C

Row | Structure (SMILES) | OD600
1 | Clc1ccccc1C(c1ccccc1)(c1ccccc1)n1ccnc1 [Clotrimazole] + CCC(C)CCCC(=O)N[C@@H](CCN)C(=O)N[C@H](C(=O)N[C@@H](CCN)C(=O)N[C@H]1CCNC(=O)[C@H]([C@@H](C)O)NC(=O)[C@H](CCN)NC(=O)[C@H](CCN)NC(=O)[C@H](CC(C)C)NC(=O)[C@@H](CC(C)C)NC(=O)[C@H](CCN)NC1=O)[C@@H](C)O [colistin] | active: 0.052
2 | CC(C)c1nc(CN(C)C(=O)N[C@H](C(=O)N[C@@H](Cc2ccccc2)C[C@H](O)[C@H](Cc2ccccc2)NC(=O)OCc2cncs2)C(C)C)cs1 [Ritonavir] + CCC(C)CCCC(=O)N[C@@H](CCN)C(=O)N[C@H](C(=O)N[C@@H](CCN)C(=O)N[C@H]1CCNC(=O)[C@H]([C@@H](C)O)NC(=O)[C@H](CCN)NC(=O)[C@H](CCN)NC(=O)[C@H](CC(C)C)NC(=O)[C@@H](CC(C)C)NC(=O)[C@H](CCN)NC1=O)[C@@H](C)O [colistin] | inactive: 0.914
3 | CC[C@H](C)C(=O)O[C@H]1C[C@@H](C)C=C2C=C[C@H](C)[C@H](CC[C@@H]3C[C@@H](O)CC(=O)O3)[C@H]21 [Lovastatin] + CCC(C)CCCC(=O)N[C@@H](CCN)C(=O)N[C@H](C(=O)N[C@@H](CCN)C(=O)N[C@H]1CCNC(=O)[C@H]([C@@H](C)O)NC(=O)[C@H](CCN)NC(=O)[C@H](CCN)NC(=O)[C@H](CC(C)C)NC(=O)[C@@H](CC(C)C)NC(=O)[C@H](CCN)NC1=O)[C@@H](C)O [colistin] | inactive: 0.917
